These are literature values, as cited in US20110301209A1, “METHODS AND COMPOSITIONS FOR THE TREATMENT OF CANCER, TUMORS, AND TUMOR-RELATED DISORDERS” (TRAGARA PHARMACEUTICALS, INC., priority 2007, published 2011).

For this data set the following is noted: cited from earlier work.

`CC(=O)O[C@H]1C(=O)[C@@]2(C)[C@H]([C@H](OC(=O)c3ccccc3)[C@]3(O)C[C@H](OC(=O)[C@H](O)[C@@H](NC(=O)c4ccccc4)c4ccccc4)C(C)=C1C3(C)C)[C@]1(OC(C)=O)CO[C@@H]1C[C@@H]2O` [Paclitaxel]: the Solubility in water result is given as “highly insoluble”.
